Earlier results on one compound are cited in US8420621B2, “Methods of using gamma cyclodextrin to control blood glucose and insulin secretion” (Abbott Laboratories, priority 2004, dated 2013).

The conditions of this data set: white or almost-white crystalline solid; cited from earlier work.

Consider `OC[C@H]1O[C@@H]2O[C@H]3[C@H](O)[C@@H](O)[C@@H](O[C@H]4[C@H](O)[C@@H](O)[C@@H](O[C@H]5[C@H](O)[C@@H](O)[C@@H](O[C@H]6[C@H](O)[C@@H](O)[C@@H](O[C@H]7[C@H](O)[C@@H](O)[C@@H](O[C@H]8[C@H](O)[C@@H](O)[C@@H](O[C@H]9[C@H](O)[C@@H](O)[C@@H](O[C@H]1[C@H](O)[C@H]2O)O[C@@H]9CO)O[C@@H]8CO)O[C@@H]7CO)O[C@@H]6CO)O[C@@H]5CO)O[C@@H]4CO)O[C@@H]3CO` [Gamma-Cyclodextrin, Gamma-cyclodextrin], for which the Solubility in water entry is given as “freely soluble in water”.
